Measurements: paper PMC4109008
No constants are given. Whether binding was seen depends on the method and setting. In cells and extracts the contact can be indirect. Some results given as binding are weak or reduced against the parent protein; the word gives no strength.

Sequences of proteins named here, by UniProt entry; tags and fusion partners are left off.
UniProt P0A9X4: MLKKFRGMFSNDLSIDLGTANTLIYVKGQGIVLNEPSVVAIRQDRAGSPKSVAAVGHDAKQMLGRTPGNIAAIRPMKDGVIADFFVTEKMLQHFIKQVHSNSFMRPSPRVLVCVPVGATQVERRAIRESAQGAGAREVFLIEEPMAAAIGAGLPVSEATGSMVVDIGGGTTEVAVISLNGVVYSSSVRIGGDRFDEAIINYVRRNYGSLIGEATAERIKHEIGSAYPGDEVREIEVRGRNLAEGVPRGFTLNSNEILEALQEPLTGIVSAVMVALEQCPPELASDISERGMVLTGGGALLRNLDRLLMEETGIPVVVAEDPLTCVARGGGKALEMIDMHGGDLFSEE
UniProt P0CE48: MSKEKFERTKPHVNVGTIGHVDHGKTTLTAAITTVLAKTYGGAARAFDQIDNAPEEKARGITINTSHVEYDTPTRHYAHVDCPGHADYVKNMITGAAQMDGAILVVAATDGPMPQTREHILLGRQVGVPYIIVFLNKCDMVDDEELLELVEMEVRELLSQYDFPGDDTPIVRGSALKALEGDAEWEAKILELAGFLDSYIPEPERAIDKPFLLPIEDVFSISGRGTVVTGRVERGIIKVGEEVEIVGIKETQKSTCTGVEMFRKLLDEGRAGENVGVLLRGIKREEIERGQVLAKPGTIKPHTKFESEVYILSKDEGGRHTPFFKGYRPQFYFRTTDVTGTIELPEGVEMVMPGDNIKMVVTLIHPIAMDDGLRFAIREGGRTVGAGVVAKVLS

What was measured:
MreB-mEosC (E. coli) = MreB-mEosC (E. coli) (UniProt P0A9X4); experiment: split reporter; BiFC-PALM with split mEos3.2(164E) in E. coli cells of the MreB-mEosC strain, 200 uM IPTG for 1.5 h at 30 °C; fixed cells (imaging) and live cells (single-molecule tracking)
MreC-mEosC (E. coli) = target: T1, MreC-mEosC (E. coli) (UniProt P16926); experiment: split reporter; BiFC specificity controls with split mEos3.2 in E. coli Bl21(de3) cells, two vectors, IPTG for 1 h
T1 sequence: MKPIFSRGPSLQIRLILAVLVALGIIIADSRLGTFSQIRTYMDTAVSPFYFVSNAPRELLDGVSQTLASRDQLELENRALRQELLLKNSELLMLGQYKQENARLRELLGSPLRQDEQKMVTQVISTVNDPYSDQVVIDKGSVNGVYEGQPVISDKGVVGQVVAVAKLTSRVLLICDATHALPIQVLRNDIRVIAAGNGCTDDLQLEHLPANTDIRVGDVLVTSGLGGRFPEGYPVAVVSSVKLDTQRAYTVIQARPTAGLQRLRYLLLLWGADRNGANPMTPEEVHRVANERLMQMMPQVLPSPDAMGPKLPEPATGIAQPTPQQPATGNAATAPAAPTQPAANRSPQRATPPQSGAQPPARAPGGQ

| binding (MreB-mEosC (E. coli)) | binding (MreC-mEosC (E. coli)) | Substance |
| --- | --- | --- |
| binds | no binding | mEosN-EF-Tu (from UniProt P0CE48 1-394) |
| binds |  | mEosN-EF-Tu-Snap (from UniProt P0CE48 1-394) |
